From publication PMC12148954 come the findings set out here.

Chains of the proteins cited; added tags and fusions are not shown.
UniProt Q96CV9: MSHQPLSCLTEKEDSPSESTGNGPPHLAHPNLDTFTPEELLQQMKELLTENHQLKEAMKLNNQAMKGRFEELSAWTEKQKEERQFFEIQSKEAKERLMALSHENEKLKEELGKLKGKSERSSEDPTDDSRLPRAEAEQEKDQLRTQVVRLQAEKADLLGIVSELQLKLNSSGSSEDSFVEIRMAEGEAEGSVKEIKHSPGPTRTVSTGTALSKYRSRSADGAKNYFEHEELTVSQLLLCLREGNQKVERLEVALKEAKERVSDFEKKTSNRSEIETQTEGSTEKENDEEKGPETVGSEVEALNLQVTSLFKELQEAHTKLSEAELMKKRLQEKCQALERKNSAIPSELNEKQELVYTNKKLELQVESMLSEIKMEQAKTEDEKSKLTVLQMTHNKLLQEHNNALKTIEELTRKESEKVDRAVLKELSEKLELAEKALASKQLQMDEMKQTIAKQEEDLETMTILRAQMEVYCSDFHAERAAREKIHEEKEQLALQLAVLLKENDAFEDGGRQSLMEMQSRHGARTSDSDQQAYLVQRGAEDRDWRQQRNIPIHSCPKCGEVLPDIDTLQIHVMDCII

These are yes or no findings as the source states them, for the method shown. In cells and extracts the contact can be indirect. Some results given as binding are weak or reduced against the parent protein; the word gives no strength.

Assay [1] has as its target T1, mixed lineage kinase domain‐like (MLKL) protein (human (endogenous in HeLa or HCE cells)) (UniProt Q8NB16).
T1 sequence: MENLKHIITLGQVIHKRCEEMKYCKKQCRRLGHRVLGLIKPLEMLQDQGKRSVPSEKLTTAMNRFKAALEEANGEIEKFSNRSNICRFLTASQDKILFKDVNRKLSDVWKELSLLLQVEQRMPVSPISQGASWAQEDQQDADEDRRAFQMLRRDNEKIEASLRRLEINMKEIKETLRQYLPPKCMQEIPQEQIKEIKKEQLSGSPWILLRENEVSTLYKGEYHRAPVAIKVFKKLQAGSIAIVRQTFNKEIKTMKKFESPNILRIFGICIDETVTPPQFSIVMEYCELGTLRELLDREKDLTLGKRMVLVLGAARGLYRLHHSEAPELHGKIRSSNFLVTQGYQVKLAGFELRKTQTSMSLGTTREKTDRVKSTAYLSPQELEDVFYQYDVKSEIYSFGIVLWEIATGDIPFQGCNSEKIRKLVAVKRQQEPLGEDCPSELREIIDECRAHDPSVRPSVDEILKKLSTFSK
Put plainly: co-IP; endogenous proteins; Optn +/+ cells with or without 1 MOI HSV-1 for 24 h; immunoprecipitation by MLKL antibody, IgG as control; IP buffer 250 mM NaCl, 50 mM Tris, .5 mM EDTA, .5% NP-40; protein A/G beads, 4°C overnight; blot for OPTN.

Assay [2] concerns the target T1, mixed lineage kinase domain‐like (MLKL) protein (human (endogenous in HeLa or HCE cells)). In words: co-IP; Optn -/- cells transfected with empty vector, full-length OPTN or OPTN 1-424 and infected with 1 MOI HSV-1 for 24 h; immunoprecipitation after transfection, blots for OPTN and MLKL; precipitating antibody not stated.

Take “Optineurin (OPTN), endogenous (from UniProt Q96CV9 1-577)”: the binding result in assay [1] is given as “binds”.
For “full‐length OPTN (expressed from a plasmid) (from UniProt Q96CV9 1-577)”, the binding result in assay [2] is “binds”.
